{"source": "PubChem BioAssay AID602196 (INSERM, 2012)", "assay": "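Modifiers of cisplatin sensitivity in A549 cells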", "cell system": "human A549 lung cancer cells", "reagents": "siRNA pair against human genes", "time to read-out": "48 h transfection before cisplatin; time from cisplatin to read-out not stated", "treatment": "cisplatin at a dose killing half of control-siRNA cells; exact dose and duration not given", "measured": "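Cisplatin cell death as a shift from the 50% death seen with control siRNA; siRNAs toxic or growth-blocking alone scored 0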", "reading the numbers": "two-siRNA summed score (-2 to +2): higher = both siRNAs protect from cisplatin killing; -2 means both sensitise", "rule for the call": "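siRNAs harmful alone (LDH or WST-1) get 0; others get +1 for less and -1 for more cisplatin killing; genes are active when the two siRNAs give the same sign, summing to ±2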", "meaning of the calls": "active = both siRNAs shift cisplatin killing the same way; inactive = no consistent shift, or siRNA harmful alone", "note": "The whole screen tested about 23,000 reagents; shown is a random part of them. Of all reagents, 455 (2%) are marked active. 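Active includes both protection and sensitisation; some change values fall well beyond the stated -50 to +50 range.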 A number with no mark means an inactive call. Further read-outs or replicates are left out here. Reagent sequences are not shown. Not stated in the record: the amount of reagent."}
{"Target gene": "NABP1", "PubChem SID": "SID131515150", "two-siRNA summed score (-2 to +2)": 0}
{"Target gene": "USP35", "PubChem SID": "SID131512836", "two-siRNA summed score (-2 to +2)": 0}
{"Target gene": "COPZ2", "PubChem SID": "SID131517122", "two-siRNA summed score (-2 to +2)": 0}
{"Target gene": "LOC440805", "PubChem SID": "SID131522225", "two-siRNA summed score (-2 to +2)": 1}
{"Target gene": "LOC392591", "PubChem SID": "SID131518766", "two-siRNA summed score (-2 to +2)": 0}
{"Target gene": "EIF4ENIF1", "PubChem SID": "SID131501383", "two-siRNA summed score (-2 to +2)": -1}
{"Target gene": "LOC340501", "PubChem SID": "SID131507533", "two-siRNA summed score (-2 to +2)": 0}
{"Target gene": "CST2", "PubChem SID": "SID131508029", "two-siRNA summed score (-2 to +2)": 0}
{"Target gene": "LOC402095", "PubChem SID": "SID131520551", "two-siRNA summed score (-2 to +2)": 1}
{"Target gene": "E2F2", "PubChem SID": "SID131503841", "two-siRNA summed score (-2 to +2)": 0}
{"Target gene": "LOC284397", "PubChem SID": "SID131517646", "two-siRNA summed score (-2 to +2)": 0}
{"Target gene": "CACNA2D3", "PubChem SID": "SID131505423", "two-siRNA summed score (-2 to +2)": 0}
{"Target gene": "SMARCA1", "PubChem SID": "SID131519678", "two-siRNA summed score (-2 to +2)": 1}
{"Target gene": "IHH", "PubChem SID": "SID131503211", "two-siRNA summed score (-2 to +2)": 0}
{"Target gene": "LOC389204", "PubChem SID": "SID131503276", "two-siRNA summed score (-2 to +2)": 0}

Records listed so far whose target name starts with E or e:
{"Target gene": "EIF4ENIF1", "PubChem SID": "SID131501383", "two-siRNA summed score (-2 to +2)": -1}
{"Target gene": "E2F2", "PubChem SID": "SID131503841", "two-siRNA summed score (-2 to +2)": 0}

More reagents:
{"Target gene": "LOC388924", "PubChem SID": "SID131521533", "two-siRNA summed score (-2 to +2)": 1}
{"Target gene": "SFTPA1", "PubChem SID": "SID131514153", "two-siRNA summed score (-2 to +2)": 0}
{"Target gene": "LOC441667", "PubChem SID": "SID131513661", "two-siRNA summed score (-2 to +2)": 0}
{"Target gene": "ZNF384", "PubChem SID": "SID131504361", "two-siRNA summed score (-2 to +2)": 0}
{"Target gene": "ATOX1", "PubChem SID": "SID131522957", "two-siRNA summed score (-2 to +2)": "2 (active)"}
{"Target gene": "LOC256483 (retired record)", "PubChem SID": "SID131514689", "two-siRNA summed score (-2 to +2)": 0}
{"Target gene": "LOC388823", "PubChem SID": "SID131516935", "two-siRNA summed score (-2 to +2)": 0}
{"Target gene": "NLRP3", "PubChem SID": "SID131504516", "two-siRNA summed score (-2 to +2)": 0}
{"Target gene": "WDR97", "PubChem SID": "SID131520410", "two-siRNA summed score (-2 to +2)": 1}
{"Target gene": "GPATCH4", "PubChem SID": "SID131502374", "two-siRNA summed score (-2 to +2)": -1}
{"Target gene": "TNP1", "PubChem SID": "SID131519133", "two-siRNA summed score (-2 to +2)": 1}
{"Target gene": "LOC401019", "PubChem SID": "SID131516514", "two-siRNA summed score (-2 to +2)": 0}
{"Target gene": "RAPGEFL1", "PubChem SID": "SID131503549", "two-siRNA summed score (-2 to +2)": 0}
{"Target gene": "NSD2", "PubChem SID": "SID131503227", "two-siRNA summed score (-2 to +2)": 0}
{"Target gene": "OR1E2", "PubChem SID": "SID131521837", "two-siRNA summed score (-2 to +2)": 1}
{"Target gene": "ANP32CP", "PubChem SID": "SID131506152", "two-siRNA summed score (-2 to +2)": 0}
